HELM strings list residues between dots; [ac] is acetyl, [am] amide, other brackets name non-standard units.
Assay: general procedure: peptide synthesis; acyl azide (isoamyl nitrite/HCl)
Details: coupling step, side-chain lactam ring

In the case of “PEPTIDE1{[pGlu].F.F.[R-Lac-Leu].M.[am]}$$$$V2.0”, the “final HPLC purity” value (HPLC) is reported as 97% and the step yield is reported as 31%.

From patent US4680283A (Merck & Co., Inc., priority 1986, dated 1987)
